No constants are given. Whether binding was seen depends on the method and setting. In cells and extracts the contact can be indirect. A result given as binding can be weak or reduced; the word gives no strength.
B1: SHC1 (protein, UniProt P29353 1-583)
chain: MDLLPPKPKYNPLRNESLSSLEEGASGSTPPEELPSPSASSLGPILPPLPGDDSPTTLCSFFPRMSNLRLANPAGGRPGSKGEPGRAADDGEGIVGAAMPDSGPLPLLQDMNKLSGGGGRRTRVEGGQLGGEEWTRHGSFVNKPTRGWLHPNDKVMGPGVSYLVRYMGCVEVLQSMRALDFNTRTQVTREAISLVCEAVPGAKGATRRRKPCSRPLSSILGRSNLKFAGMPITLTVSTSSLNLMAADCKQIIANHHMQSISFASGGDPDTAEYVAYVAKDPVNQRACHILECPEGLAQDVISTIGQAFELRFKQYLRNPPKLVTPHDRMAGFDGSAWDEEEEEPPDHQYYNDFPGKEPPLGGVVDMRLREGAAPGAARPTAPNAQTPSHLGATLPVGQPVGGDPEVRKQMPPPPPCPGRELFDDPSYVNVQNLDKARQAVGGAGPPNPAINGSAPRDLFDMKPFEDALRVPPPPQSVSMAEQLRGEPWFHGKLSRREAEALLQLNGDFLVRESTTTPGQYVLTGLQSGQPKHLLLVDPEGVVRTKDHRFESVSHLISYHMDNHLPIISAGSELCLQQPVERKL
B2: PLCγ1 (enzyme, UniProt P19174 1-1290)
chain: MAGAASPCANGCGPGAPSDAEVLHLCRSLEVGTVMTLFYSKKSQRPERKTFQVKLETRQITWSRGADKIEGAIDIREIKEIRPGKTSRDFDRYQEDPAFRPDQSHCFVILYGMEFRLKTLSLQATSEDEVNMWIKGLTWLMEDTLQAPTPLQIERWLRKQFYSVDRNREDRISAKDLKNMLSQVNYRVPNMRFLRERLTDLEQRSGDITYGQFAQLYRSLMYSAQKTMDLPFLEASTLRAGERPELCRVSLPEFQQFLLDYQGELWAVDRLQVQEFMLSFLRDPLREIEEPYFFLDEFVTFLFSKENSVWNSQLDAVCPDTMNNPLSHYWISSSHNTYLTGDQFSSESSLEAYARCLRMGCRCIELDCWDGPDGMPVIYHGHTLTTKIKFSDVLHTIKEHAFVASEYPVILSIEDHCSIAQQRNMAQYFKKVLGDTLLTKPVEISADGLPSPNQLKRKILIKHKKLAEGSAYEEVPTSMMYSENDISNSIKNGILYLEDPVNHEWYPHYFVLTSSKIYYSEETSSDQGNEDEEEPKEVSSSTELHSNEKWFHGKLGAGRDGRHIAERLLTEYCIETGAPDGSFLVRESETFVGDYTLSFWRNGKVQHCRIHSRQDAGTPKFFLTDNLVFDSLYDLITHYQQVPLRCNEFEMRLSEPVPQTNAHESKEWYHASLTRAQAEHMLMRVPRDGAFLVRKRNEPNSYAISFRAEGKIKHCRVQQEGQTVMLGNSEFDSLVDLISYYEKHPLYRKMKLRYPINEEALEKIGTAEPDYGALYEGRNPGFYVEANPMPTFKCAVKALFDYKAQREDELTFIKSAIIQNVEKQEGGWWRGDYGGKKQLWFPSNYVEEMVNPVALEPEREHLDENSPLGDLLRGVLDVPACQIAIRPEGKNNRLFVFSISMASVAHWSLDVAADSQEELQDWVKKIREVAQTADARLTEGKIMERRKKIALELSELVVYCRPVPFDEEKIGTERACYRDMSSFPETKAEKYVNKAKGKKFLQYNRLQLSRIYPKGQRLDSSNYDPLPMWICGSQLVALNFQTPDKPMQMNQALFMTGRHCGYVLQPSTMRDEAFDPFDKSSLRGLEPCAISIEVLGARHLPKNGRGIVCPFVEIEVAGAEYDSTKQKTEFVVDNGLNPVWPAKPFHFQISNPEFAFLRFVVYEEDMFSDQNFLAQATFPVKGLKTGYRAVPLKNNYSEDLELASLLIKIDIFPAKENGDLSPFSGTSLRERGSDASGQLFHGRAREGSFESRYQQPFEDFRISQEHLADHFDSRERRAPRRTRVNGDNRL

Key:
[1] = target: FLAG-tagged EML4-ALK variant 1, wild-type (human); assay: co-IP; anti-FLAG (M2 agarose-FLAG beads, overnight at 4°C) of FLAG-tagged fusion or mutant from transfected HEK293T cells, 48 h after transfection, serum-starved 24 h; lysis buffer 0.5% NP-40, 150 mM NaCl, 50 mM TrisCl pH 7.5; washed three times; western blotting of partners
[2] = target: FLAG-tagged CCDC6-RET, wild-type (human); assay: as above

Binder | binding [1] | binding [2]
B1 | binds | binds
B2 | binds | binds

— paper PMC8127962
